For 1 molecule, binding results are on record in publication PMC6056500, “Novel interactomics approach identifies ABCA1 as direct target of evodiamine, which increases macrophage cholesterol efflux” (Scientific Reports, 2018).

Amino acid sequences for entries named in this document (tags omitted).
UniProt O95477: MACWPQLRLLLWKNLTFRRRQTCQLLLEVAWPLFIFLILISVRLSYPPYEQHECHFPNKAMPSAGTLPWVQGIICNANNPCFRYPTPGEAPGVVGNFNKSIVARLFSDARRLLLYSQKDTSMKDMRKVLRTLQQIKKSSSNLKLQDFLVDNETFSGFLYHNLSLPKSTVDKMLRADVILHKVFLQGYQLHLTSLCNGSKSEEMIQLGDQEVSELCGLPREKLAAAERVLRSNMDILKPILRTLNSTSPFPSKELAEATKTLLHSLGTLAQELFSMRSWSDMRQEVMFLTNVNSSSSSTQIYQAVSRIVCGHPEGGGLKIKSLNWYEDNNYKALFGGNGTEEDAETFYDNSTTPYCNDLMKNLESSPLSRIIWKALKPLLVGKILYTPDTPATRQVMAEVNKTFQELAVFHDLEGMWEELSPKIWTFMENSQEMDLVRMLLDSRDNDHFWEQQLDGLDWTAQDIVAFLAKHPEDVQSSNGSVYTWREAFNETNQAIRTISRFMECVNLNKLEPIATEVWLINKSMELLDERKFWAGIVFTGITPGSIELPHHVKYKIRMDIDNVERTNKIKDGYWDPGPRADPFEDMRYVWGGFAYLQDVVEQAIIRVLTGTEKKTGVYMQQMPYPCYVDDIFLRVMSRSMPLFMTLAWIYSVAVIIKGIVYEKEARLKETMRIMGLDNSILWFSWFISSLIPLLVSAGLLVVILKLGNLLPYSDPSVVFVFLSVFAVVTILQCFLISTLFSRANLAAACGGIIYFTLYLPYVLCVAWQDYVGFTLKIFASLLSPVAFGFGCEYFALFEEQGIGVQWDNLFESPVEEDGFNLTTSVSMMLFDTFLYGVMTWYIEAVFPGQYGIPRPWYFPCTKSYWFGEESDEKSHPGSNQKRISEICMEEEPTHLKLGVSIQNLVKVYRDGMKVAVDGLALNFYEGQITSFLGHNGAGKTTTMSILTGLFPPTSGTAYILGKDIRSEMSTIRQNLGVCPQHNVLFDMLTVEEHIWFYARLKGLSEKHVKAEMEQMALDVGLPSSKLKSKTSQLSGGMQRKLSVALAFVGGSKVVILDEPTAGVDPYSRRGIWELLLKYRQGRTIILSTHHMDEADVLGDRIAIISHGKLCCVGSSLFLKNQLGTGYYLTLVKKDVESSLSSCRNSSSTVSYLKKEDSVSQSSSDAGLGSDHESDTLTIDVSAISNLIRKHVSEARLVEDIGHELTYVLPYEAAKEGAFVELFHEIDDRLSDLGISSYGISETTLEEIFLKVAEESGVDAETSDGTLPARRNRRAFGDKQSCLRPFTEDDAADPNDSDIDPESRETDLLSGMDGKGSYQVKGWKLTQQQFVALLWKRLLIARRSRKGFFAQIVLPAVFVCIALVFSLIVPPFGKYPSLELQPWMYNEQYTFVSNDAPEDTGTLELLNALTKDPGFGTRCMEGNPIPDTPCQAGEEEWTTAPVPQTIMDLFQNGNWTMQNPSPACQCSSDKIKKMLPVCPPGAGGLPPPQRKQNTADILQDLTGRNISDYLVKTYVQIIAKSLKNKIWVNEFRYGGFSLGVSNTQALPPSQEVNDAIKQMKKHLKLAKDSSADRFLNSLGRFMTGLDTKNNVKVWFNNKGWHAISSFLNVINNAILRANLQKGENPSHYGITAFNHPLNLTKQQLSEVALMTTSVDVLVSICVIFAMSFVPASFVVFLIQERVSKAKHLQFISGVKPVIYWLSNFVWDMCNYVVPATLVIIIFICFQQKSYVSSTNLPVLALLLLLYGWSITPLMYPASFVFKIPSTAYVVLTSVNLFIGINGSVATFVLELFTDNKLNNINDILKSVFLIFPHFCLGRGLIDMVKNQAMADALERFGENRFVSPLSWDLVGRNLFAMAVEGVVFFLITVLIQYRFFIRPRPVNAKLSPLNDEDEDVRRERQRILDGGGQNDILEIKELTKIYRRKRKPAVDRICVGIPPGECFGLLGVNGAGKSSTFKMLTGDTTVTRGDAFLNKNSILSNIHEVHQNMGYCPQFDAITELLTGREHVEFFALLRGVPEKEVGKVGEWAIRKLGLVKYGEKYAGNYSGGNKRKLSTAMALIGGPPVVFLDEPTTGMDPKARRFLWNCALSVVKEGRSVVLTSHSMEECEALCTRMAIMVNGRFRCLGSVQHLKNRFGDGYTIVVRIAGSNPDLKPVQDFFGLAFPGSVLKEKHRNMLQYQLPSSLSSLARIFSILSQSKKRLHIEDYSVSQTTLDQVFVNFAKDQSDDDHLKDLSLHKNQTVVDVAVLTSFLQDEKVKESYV

Results are given in words; binding and its absence hold for the method and conditions named. Some binding calls cover weakened binding; strength is not graded here.

The test addresses ATP-binding cassette transporter A1 (ABCA1), endogenous in THP-1-derived macrophages (human (endogenous in THP-1)) (UniProt O95477). Kind of test: nematic protein organisation technique (NPOT) with LC-MS/MS; 1 uM evodiamine mixed with 1 ug total THP-1 extract at 4 °C; heteroassemblies formed in a transitory pH gradient (5-10), isolated and identified by mass spectrometry; no heteroassembly forms without evodiamine.

B1: retinal dehydrogenase 1 (ALDH1A1), endogenous in THP-1-derived macrophages (enzyme, UniProt P00352 1-501)
chain: MSSSGTPDLPVLLTDLKIQYTKIFINNEWHDSVSGKKFPVFNPATEEELCQVEEGDKEDVDKAVKAARQAFQIGSPWRTMDASERGRLLYKLADLIERDRLLLATMESMNGGKLYSNAYLNDLAGCIKTLRYCAGWADKIQGRTIPIDGNFFTYTRHEPIGVCGQIIPWNFPLVMLIWKIGPALSCGNTVVVKPAEQTPLTALHVASLIKEAGFPPGVVNIVPGYGPTAGAAISSHMDIDKVAFTGSTEVGKLIKEAAGKSNLKRVTLELGGKSPCIVLADADLDNAVEFAHHGVFYHQGQCCIAASRIFVEESIYDEFVRRSVERAKKYILGNPLTPGVTQGPQIDKEQYDKILDLIESGKKEGAKLECGGGPWGNKGYFVQPTVFSNVTDEMRIAKEEIFGPVQQIMKFKSLDDVIKRANNTFYGLSAGVFTKDIDKAITISSALQAGTVWVNCYGVVSAQCPFGGFKMSGNGRELGEYGFHEYTEVKTVTVKISQKNS
On to B1, for which the binding entry was “binds”.
